# Data reported in the supplement of paper PMC8728848.
# The list shows a part of the results.
# Key:
# Assay in all cases: glycan array binding signal (z-score within array); higher = stronger binding
# Conditions in all cases: glycan notation: IUPAC condensed, linker removed
# [1] = target: GlcNAc(b1-6)Gal(b1-4)GlcNAc
# Method in brief: (§1)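 Glycan array data came from 3228 arrays in the Consortium for Functional Glycomics database, and only arrays with an available protein sequence were kept. Glycan names were put into IUPAC-condensed notation, and columns mapping to the same glycan were averaged. The binding signal is a within-array Z-score, averaged across arrays of one protein sequence run at different concentrations or buffers and across linkers. A negative Z-score can be read as non-binding.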
# GlcNAc(b1-6)GalNAc = target: GlcNAc(b1-6)GalNAc
# Method in brief: as §1
# Kdn(a2-3)Gal(b1-3)GlcNAc = target: Kdn(a2-3)Gal(b1-3)GlcNAc
# Method in brief: as §1
# Kdn(a2-3)Gal(b1-4)GlcNAc = target: Kdn(a2-3)Gal(b1-4)GlcNAc
# Method in brief: as §1
# [2] = target: Man(a1-2)Man(a1-2)Man(a1-3)Man
# Method in brief: as §1
# [3] = target: Man(a1-2)Man(a1-2)Man(a1-3)[Man(a1-2)Man(a1-3)[Man(a1-2)Man(a1-6)]Man(a1-6)]Man(b1-4)GlcNAc(b1-4)GlcNAc
# Method in brief: as §1
# [4] = target: Man(a1-2)Man(a1-2)Man(a1-3)[Man(a1-2)Man(a1-6)[Man(a1-3)]Man(a1-6)]Man(b1-4)GlcNAc(b1-4)GlcNAc
# Method in brief: as §1
# [5] = target: Man(a1-2)Man(a1-2)Man(a1-6)[Man(a1-3)]Man
# Method in brief: as §1
# Man(a1-2)Man(a1-3)Man = target: Man(a1-2)Man(a1-3)Man
# Method in brief: as §1
# [6] = target: Man(a1-2)Man(a1-3)[Man(a1-2)Man(a1-6)]Man
# Method in brief: as §1
# [7] = target: Man(a1-2)Man(a1-3)[Man(a1-3)[Man(a1-6)]Man(a1-6)]Man(b1-4)GlcNAc(b1-4)GlcNAc
# Method in brief: as §1
# [8] = target: Man(a1-2)Man(a1-3)[Man(a1-6)]Man(a1-6)[Man(a1-2)Man(a1-3)]Man(b1-4)GlcNAc(b1-4)GlcNAc
# Method in brief: as §1
# Man(a1-3)[Man(a1-6)]Man = target: Man(a1-3)[Man(a1-6)]Man
# Method in brief: as §1
# [9] = target: Man(a1-3)[Man(a1-6)]Man(a1-6)[Man(a1-3)]Man(b1-4)GlcNAc(b1-4)GlcNAc
# Method in brief: as §1
# [10] = target: Man(a1-3)[Man(a1-6)]Man(b1-4)GlcNAc(b1-4)GlcNAc
# Method in brief: as §1
# Man(b1-4)GlcNAc = target: Man(b1-4)GlcNAc
# Method in brief: as §1
# Neu5Ac(a2-3)Gal = target: Neu5Ac(a2-3)Gal
# Method in brief: as §1
# [11] = target: Neu5Ac(a2-3)Gal(b1-3)GalNAc
# Method in brief: as §1
# [12] = target: Neu5Ac(a2-3)Gal(b1-3)GalNAc(b1-3)Gal(a1-4)Gal(b1-4)Glc
# Method in brief: as §1
# [13] = target: Neu5Ac(a2-3)Gal(b1-3)GalNAc(b1-4)[Neu5Ac(a2-3)]Gal(b1-4)Glc
# Method in brief: as §1
# [14] = target: Neu5Ac(a2-3)Gal(b1-3)GalNAc6S
# Method in brief: as §1
# [15] = target: Neu5Ac(a2-3)Gal(b1-3)GlcNAc
# Method in brief: as §1
# [16] = target: Neu5Ac(a2-3)Gal(b1-3)GlcNAc(b1-3)Gal(b1-3)GlcNAc
# Method in brief: as §1
# [17] = target: Neu5Ac(a2-3)Gal(b1-3)GlcNAc(b1-3)Gal(b1-4)GlcNAc
# Method in brief: as §1
# [18] = target: Neu5Ac(a2-3)Gal(b1-3)GlcNAc6S
# Method in brief: as §1
# [19] = target: Neu5Ac(a2-3)Gal(b1-3)[Fuc(a1-4)]GlcNAc
# Method in brief: as §1
# [20] = target: Neu5Ac(a2-3)Gal(b1-3)[Fuc(a1-4)]GlcNAc(b1-3)Gal(b1-4)[Fuc(a1-3)]GlcNAc
# Method in brief: as §1
# [21] = target: Neu5Ac(a2-3)Gal(b1-3)[Neu5Ac(a2-3)Gal(b1-4)]GlcNAc
# Method in brief: as §1
# [22] = target: Neu5Ac(a2-3)Gal(b1-3)[Neu5Ac(a2-6)]GalNAc
# Method in brief: as §1
# Neu5Ac(a2-3)Gal(b1-4)Glc = target: Neu5Ac(a2-3)Gal(b1-4)Glc
# Method in brief: as §1
# [23] = target: Neu5Ac(a2-3)Gal(b1-4)GlcNAc
# Method in brief: as §1
# [24] = target: Neu5Ac(a2-3)Gal(b1-4)GlcNAc(b1-3)Gal(b1-3)GlcNAc
# Method in brief: as §1
# [25] = target: Neu5Ac(a2-3)Gal(b1-4)GlcNAc(b1-3)Gal(b1-4)GlcNAc
# Method in brief: as §1
# [26] = target: Neu5Ac(a2-3)Gal(b1-4)GlcNAc(b1-3)Gal(b1-4)GlcNAc(b1-3)Gal(b1-4)GlcNAc
# Method in brief: as §1
# [27] = target: Neu5Ac(a2-3)Gal(b1-4)GlcNAc(b1-3)Gal(b1-4)[Fuc(a1-3)]GlcNAc
# Method in brief: as §1
# [28] = target: Neu5Ac(a2-3)Gal(b1-4)GlcNAc(b1-6)[Gal(b1-3)]GalNAc
# Method in brief: as §1
# [29] = target: Neu5Ac(a2-3)Gal(b1-4)GlcNAc6S
# Method in brief: as §1
# [30] = target: Neu5Ac(a2-3)Gal(b1-4)[Fuc(a1-3)]GlcNAc
# Method in brief: as §1
# [31] = target: Neu5Ac(a2-3)Gal(b1-4)[Fuc(a1-3)]GlcNAc(b1-3)Gal
# Method in brief: as §1
# [32] = target: Neu5Ac(a2-3)Gal(b1-4)[Fuc(a1-3)]GlcNAc(b1-3)Gal(b1-4)GlcNAc
# Method in brief: as §1
# [33] = target: Neu5Ac(a2-3)Gal(b1-4)[Fuc(a1-3)]GlcNAc(b1-3)Gal(b1-4)[Fuc(a1-3)]GlcNAc(b1-3)Gal(b1-4)[Fuc(a1-3)]GlcNAc
# Method in brief: as §1
# [34] = target: Neu5Ac(a2-3)Gal(b1-4)[Fuc(a1-3)]GlcNAc6S
# Method in brief: as §1
# [35] = target: Neu5Ac(a2-3)Gal6S(b1-4)GlcNAc
# Method in brief: as §1
# [36] = target: Neu5Ac(a2-3)Gal6S(b1-4)[Fuc(a1-3)]GlcNAc
# Method in brief: as §1
# Neu5Ac(a2-3)GalNAc = target: Neu5Ac(a2-3)GalNAc
# Method in brief: as §1
binder,measurement,setting,value
"C-Reactive Protein (Homo sapiens), P02741 (protein) MEKLLCFLVLTSLSHAFGQTDMSRKAFVFPKESDTSYVSLKAPLTKPLKAFTVCLHFYTELSSTRGYSIFSYATKRQDNEILIFWSKDIGYSFTVGGSEILFEVPEVTVAPVHICTSWESASGIVEFWVDGKPRVRKSLKKGYTVGAEASIILGQEQDSFGGNFEGSQSLVGDIGNVNMWDFVLSPDEINTIYLGGPFSPNVLNWRALKYEVQGEVFTKPQLWP",glycan array binding signal (z-score),[1],-0.512
same,glycan array binding signal (z-score),GlcNAc(b1-6)GalNAc,-0.319
same,glycan array binding signal (z-score),Kdn(a2-3)Gal(b1-3)GlcNAc,-0.402
same,glycan array binding signal (z-score),Kdn(a2-3)Gal(b1-4)GlcNAc,-0.32
same,glycan array binding signal (z-score),[2],-0.422
same,glycan array binding signal (z-score),[3],-0.496
same,glycan array binding signal (z-score),[4],-0.494
same,glycan array binding signal (z-score),[5],-0.273
same,glycan array binding signal (z-score),Man(a1-2)Man(a1-3)Man,-0.318
same,glycan array binding signal (z-score),[6],-0.343
same,glycan array binding signal (z-score),[7],-0.563
same,glycan array binding signal (z-score),[8],-0.188
same,glycan array binding signal (z-score),Man(a1-3)[Man(a1-6)]Man,-0.727
same,glycan array binding signal (z-score),[9],0.83
same,glycan array binding signal (z-score),[10],-0.294
same,glycan array binding signal (z-score),Man(b1-4)GlcNAc,-0.423
same,glycan array binding signal (z-score),Neu5Ac(a2-3)Gal,-0.084
same,glycan array binding signal (z-score),[11],-0.253
same,glycan array binding signal (z-score),[12],0.607
same,glycan array binding signal (z-score),[13],0.03
same,glycan array binding signal (z-score),[14],-0.274
same,glycan array binding signal (z-score),[15],-0.407
same,glycan array binding signal (z-score),[16],-0.281
same,glycan array binding signal (z-score),[17],-0.582
same,glycan array binding signal (z-score),[18],0.718
same,glycan array binding signal (z-score),[19],-0.459
same,glycan array binding signal (z-score),[20],0.712
same,glycan array binding signal (z-score),[21],0.258
same,glycan array binding signal (z-score),[22],0.09
same,glycan array binding signal (z-score),Neu5Ac(a2-3)Gal(b1-4)Glc,-0.258
same,glycan array binding signal (z-score),[23],0.131
same,glycan array binding signal (z-score),[24],1.36
same,glycan array binding signal (z-score),[25],-0.055
same,glycan array binding signal (z-score),[26],-0.001
same,glycan array binding signal (z-score),[27],-0.118
same,glycan array binding signal (z-score),[28],1.51
same,glycan array binding signal (z-score),[29],1.28
same,glycan array binding signal (z-score),[30],-0.139
same,glycan array binding signal (z-score),[31],-0.111
same,glycan array binding signal (z-score),[32],0.402
same,glycan array binding signal (z-score),[33],0.731
same,glycan array binding signal (z-score),[34],-0.689
same,glycan array binding signal (z-score),[35],-0.121
same,glycan array binding signal (z-score),[36],0.578
same,glycan array binding signal (z-score),Neu5Ac(a2-3)GalNAc,0.372

# Another view of part of the listing above:
binder | measurement | setting | value
C-Reactive Protein (Homo sapiens), P02741 (protein) MEKLLCFLVLTSLSHAFGQTDMSRKAFVFPKESDTSYVSLKAPLTKPLKAFTVCLHFYTELSSTRGYSIFSYATKRQDNEILIFWSKDIGYSFTVGGSEILFEVPEVTVAPVHICTSWESASGIVEFWVDGKPRVRKSLKKGYTVGAEASIILGQEQDSFGGNFEGSQSLVGDIGNVNMWDFVLSPDEINTIYLGGPFSPNVLNWRALKYEVQGEVFTKPQLWP | glycan array binding signal (z-score) | [28] | 1.51
same | glycan array binding signal (z-score) | [29] | 1.28
